This note sets out measurements from publication PMC6023860.

Results are given in words; binding and its absence hold for the method and conditions named. For some of these results: Binding seen in cells or lysates may run through a third protein. For some of these results: Binding calls can cover weak binding; strength is not graded here. Tags and fused reporters may be left off the sequences shown.

Experiment [1] has as its target T1, D3 (BiFC fusion from pXY106) (rice (Oryza sativa)) (UniProt Q5VMP0).
T1 sequence: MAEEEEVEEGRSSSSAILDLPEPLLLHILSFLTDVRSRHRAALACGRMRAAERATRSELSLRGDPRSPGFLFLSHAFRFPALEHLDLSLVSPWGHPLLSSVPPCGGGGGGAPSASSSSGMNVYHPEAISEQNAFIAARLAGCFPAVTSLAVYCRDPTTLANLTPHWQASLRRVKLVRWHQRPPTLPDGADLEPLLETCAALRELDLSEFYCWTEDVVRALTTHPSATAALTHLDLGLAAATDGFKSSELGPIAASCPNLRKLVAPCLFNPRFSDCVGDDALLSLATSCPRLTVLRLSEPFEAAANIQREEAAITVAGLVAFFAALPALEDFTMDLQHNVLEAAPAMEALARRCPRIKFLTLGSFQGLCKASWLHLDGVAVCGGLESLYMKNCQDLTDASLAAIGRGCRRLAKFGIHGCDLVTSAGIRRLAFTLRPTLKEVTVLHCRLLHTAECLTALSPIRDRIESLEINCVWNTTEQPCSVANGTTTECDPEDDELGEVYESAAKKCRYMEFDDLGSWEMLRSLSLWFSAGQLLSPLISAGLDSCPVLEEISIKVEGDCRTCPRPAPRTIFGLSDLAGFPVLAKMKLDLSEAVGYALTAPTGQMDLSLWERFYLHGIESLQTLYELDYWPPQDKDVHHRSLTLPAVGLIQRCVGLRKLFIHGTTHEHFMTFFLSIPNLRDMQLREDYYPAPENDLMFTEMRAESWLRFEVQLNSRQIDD
In words: split reporter; BiFC; Agrobacterium-infiltrated young leaves of Nicotiana benthamiana; YFP fluorescence by confocal microscopy.

Experiment [2] concerns the target T2, D3 (yeast two-hybrid fusion in pDBLeu) (rice (Oryza sativa)) (UniProt Q5VMP0).
T2 sequence: T1 sequence
In words: two-hybrid; yeast strain AH109; pAD502 and pDBLeu fusions; growth on SD medium lacking Leu, Trp and His.

Experiment [3] addresses T3, GST-D3 (rice (Oryza sativa)) (UniProt Q5VMP0).
T3 sequence: T1 sequence
Put plainly: pull-down; GST or D3-GST-coupled beads incubated with MBP-CYC U2 for 3 h at 4 °C; blot with anti-MBP; both purified.

Experiment [4] deals with T3, GST-D3 (rice (Oryza sativa)). Put plainly: pull-down; modified pull-down: MBP-CYC U2s preincubated with OsGSK2-HIS or OsGSK2^K69R-HIS for 1 h at 37 °C in kinase assay buffer (50 mM Tris-HCl pH 7.4, 10 mM MgCl2, 1 mM DTT, 100 μM ATP), then incubated with D3-GST beads; blot with anti-MBP; both purified.

Consider “CYC U2 (BiFC fusion from pXY104) (rice (Oryza sativa))”, for which the binding result in experiment [1] is “binds”.
Take “CYC U2 (yeast two-hybrid fusion in pAD502) (rice (Oryza sativa))”: in experiment [2], the binding entry is given as “no binding”.
Turning to “MBP-CYC U2 (unphosphorylated) (rice (Oryza sativa))”, the binding result in experiment [3] and in experiment [4] was “no binding” in each case.
